Assay results: publication PMC10926604, “Discovery of a novel small molecule as CD47/SIRPα and PD-1/PD-L1 dual inhibitor for cancer immunotherapy” (Cell Communication and Signaling : CCS, 2024)
These are yes or no findings as the source states them, for the method shown. Some binding calls cover weakened binding; strength is not graded here. Where a sequence is shown, tags or fusion partners need not be part of it.

Molecular target: T1, murine CD47 on CHO-K1-mCD47 cells (mouse) (UniProt Q61735)
T1 sequence: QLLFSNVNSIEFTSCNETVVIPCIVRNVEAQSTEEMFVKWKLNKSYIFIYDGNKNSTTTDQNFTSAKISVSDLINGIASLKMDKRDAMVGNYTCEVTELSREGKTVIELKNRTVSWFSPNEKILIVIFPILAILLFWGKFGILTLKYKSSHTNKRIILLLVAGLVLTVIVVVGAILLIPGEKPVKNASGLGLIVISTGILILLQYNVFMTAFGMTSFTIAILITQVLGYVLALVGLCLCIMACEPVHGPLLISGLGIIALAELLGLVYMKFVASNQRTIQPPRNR
Experiment: flow cytometry on cells; blocking assay: 100 ng SIRPα-Fc or 50 ng PD-L1-Fc pre-incubated with serially diluted SMC18 in PBS 7.2 (1% DMSO) on ice 30 min, added to CHO-K1-CD47 or CHO-K1-PD-1 cells on ice 30 min; PE anti-human IgG (Fc) detection, MFI; only the binder purified

B1: mouse SIRPα-Fc protein (Fc fusion, UniProt P97797 32-373)
chain: KELKVTQPEKSVSVAAGDSTVLNCTLTSLLPVGPIRWYRGVGPSRLLIYSFAGEYVPRIRNVSDTTKRNNMDFSIRISNVTPADAGIYYCVKFQKGSSEPDTEIQSGGGTEVYVLAKPSPPEVSGPADRGIPDQKVNFTCKSHGFSPRNITLKWFKDGQELHPLETTVNPSGKNVSYNISSTVRVVLNSMDVNSKVICEVAHITLDRSPLRGIANLSNFIRVSPTVKVTQQSPTSMNQVNLTCRAERFYPEDLQLIWLENGNVSRNDTPKNLTKNTDGTYNYTSLFLVNSSAHREDVVFTCQVKHDQQPAITRNHTVLGFAHSSDQGSMQTFPDNNATHNWN
binding: binds
